{"source": "the supplement of paper PMC4604168 (melanoma cell lines)", "note": "This is one part of the list. Single values are uncertain, as repeats are few or missing.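 The apoptosis fraction was the count of cleaved-PARP antibody-stained nuclei relative to all DNA-stained nuclei, imaged in 1,536-well plates. Screening doses were set so most cells survived, and baseline and induced cleaved-PARP levels vary greatly across cell lines.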"}
{"test_system": "LOXIMVI", "test": "cleaved PARP positive nuclei fraction relative to DMSO control; melanoma cells; higher = more apoptosis", "settings": "library dose: low library concentration; 72 h", "units": {"cleaved PARP positive nuclei fraction": "%"}}
{"compound": "Cc1ccc(Nc2nccc(N(C)c3ccc4c(C)n(C)nc4c3)n2)cc1S(N)(=O)=O", "note": "[Pazopanib] + CO[C@H]1C[C@@H]2CC[C@@H](C)[C@@](O)(O2)C(=O)C(=O)N2CCCC[C@H]2C(=O)O[C@H]([C@H](C)C[C@@H]2CC[C@@H](OCCO)[C@H](OC)C2)CC(=O)[C@H](C)/C=C(\\C)[C@@H](O)[C@@H](OC)C(=O)[C@H](C)C[C@H](C)/C=C/C=C/C=C/1C [everolimus] (first compound 0.4 µM, partner dose 0.02 µM)", "cleaved PARP positive nuclei fraction": 357}
{"compound": "Cc1ccc(Nc2nccc(N(C)c3ccc4c(C)n(C)nc4c3)n2)cc1S(N)(=O)=O", "note": "[Pazopanib] + CCCS(=O)(=O)Nc1ccc(F)c(C(=O)c2c[nH]c3ncc(Cl)cc23)c1F [PLX4720] (first compound 0.4 µM, partner dose 0.08 µM)", "cleaved PARP positive nuclei fraction": 111}
{"compound": "N#CC[C@H](C1CCCC1)n1cc(-c2ncnc3[nH]ccc23)cn1", "note": "[ruxolitinib] + OCc1c[nH]c2ccccc12 [Indole-3-carbinol] (first compound 1 µM, partner dose 0.8 µM)", "cleaved PARP positive nuclei fraction": 79.9}
{"compound": "Cc1ccc(Nc2nccc(N(C)c3ccc4c(C)n(C)nc4c3)n2)cc1S(N)(=O)=O", "note": "[Pazopanib] + OCc1c[nH]c2ccccc12 [Indole-3-carbinol] (first compound 0.4 µM, partner dose 0.8 µM)", "cleaved PARP positive nuclei fraction": 85.5}
{"compound": "COc1cc([C@@H]2c3cc4c(cc3[C@@H](O[C@@H]3O[C@@H]5CO[C@@H](C)O[C@H]5[C@H](O)[C@H]3O)[C@H]3COC(=O)[C@H]23)OCO4)cc(OC)c1O", "note": "[etoposide] + C[C@]1(O)C[C@@H](c2nc(-c3ccc4ccc(-c5ccccc5)nc4c3)c3c(N)nccn32)C1 [OSI906] (first compound 0.02 µM, partner dose 0.4 µM)", "cleaved PARP positive nuclei fraction": 146}
